# From patent publication US20190125735A1, “INHIBITION OF P38 MAPK FOR THE TREATMENT OF CANCER” (Board of Regents, The University of Texas System, priority 2015, published 2019)
# “Also recorded” adds a separate entry of the source. At least one compound was matched to its structure with a doubt left.
# Columns and labels:
# [1] = system: BCR-ABL+ mouse ALL cells seeded on MSCs; test: Post-screening leukemic cell cluster formation underneath pretreated MSCs; type: cell-based
# From the text: (§1) Phase-contrast images of co-cultured MSCs and ALL cells were obtained using an Axio Observer.Z1 microscope, an AxioCam MR camera, and AxioVision software (Zeiss, Oberkochen, Germany). For screening, a cluster was defined as a group of more than five leukemic cells under the MSCs. The total number of leukemic cell clusters was the average number of clusters from three different fields (10× objective). For post-screening experiments, a cluster was defined as a group of more than 10 leukemic cells under the MSCs. The total number of leukemic cell clusters was the average number of clusters from 10 different fields (10× objective).
# [2] = system: BCR-ABL+ mouse ALL cells seeded on MSCs (OP9 cells); test: Clinical compound library screen, imatinib-pretreated MSC / BCR-ABL+ ALL cell co-culture; type: cell-based; conditions: imatinib 5 μM + compound 6.6 μM (dexamethasone 50 nM), 3 days pretreatment + 1 day
# Protocol: The effectiveness of the compounds was determined in preventing cluster formation by microscopy and the toxicity of the compounds by bioluminescence imaging of co-cultured MSCs and leukemic cells.
# The clinical compounds library was purchased from the John S. Dunn Gulf Coast Consortium for Chemical Genomics (Houston, Tex.). […] Then, luciferase-labeled BCR-ABL+ mouse ALL cells were seeded on to the MSCs. Treatment was continued for 1 day, and the samples were evaluated via phase-contrast microscopy for the formation of leukemic cell clusters underneath the pretreated MSCs. To determine the compounds' toxicity in MSCs or leukemic cells, we examined the MSC/ALL cell co-cultures via microscopy and/or bioluminescence imaging.
# as §1
structure (smiles),measurement,setting,value
C[C@@H]1C[C@H]2[C@@H]3CCC4=CC(=O)C=C[C@]4(C)[C@@]3(F)[C@@H](O)C[C@]2(C)[C@@]1(O)C(=O)CO [dexamethasone],Initial formation of imatinib-induced leukemic cell clusters,[1]; dexamethasone 50 nM with imatinib,could not prevent the initial formation of imatinib-induced leukemic cell clusters
same,Leukemic cell clusters underneath imatinib-pretreated MSCs,"[1]; imatinib 5 μM with SB203580 20 μM or dexamethasone 50 nM, 4 days + 24 hours",efficiently targeted leukemic cell clusters
same,Imatinib-induced leukemic cell cluster formation,[2],eliminated the leukemic cell clusters by eliciting toxicity toward clustered leukemic cells; also recorded: eliminated leukemic cell clusters even at nanomolar concentrations
